Library screen at single concentrations

By UniProt entry, the sequences of proteins in these tests, tags left out. Residues count along the entry.
UniProt A4I591, 1-473: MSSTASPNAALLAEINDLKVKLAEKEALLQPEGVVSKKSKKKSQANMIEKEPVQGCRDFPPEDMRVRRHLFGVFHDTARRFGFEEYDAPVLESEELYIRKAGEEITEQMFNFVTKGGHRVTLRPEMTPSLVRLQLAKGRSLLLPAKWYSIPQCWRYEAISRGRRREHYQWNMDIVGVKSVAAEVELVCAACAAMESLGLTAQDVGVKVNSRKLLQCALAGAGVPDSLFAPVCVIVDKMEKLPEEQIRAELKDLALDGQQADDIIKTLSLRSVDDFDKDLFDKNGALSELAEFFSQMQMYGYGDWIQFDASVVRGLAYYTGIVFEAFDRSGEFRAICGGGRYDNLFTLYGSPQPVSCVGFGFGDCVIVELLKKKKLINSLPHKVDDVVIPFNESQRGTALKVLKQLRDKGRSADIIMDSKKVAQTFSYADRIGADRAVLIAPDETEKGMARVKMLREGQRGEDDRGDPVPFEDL
UniProt P9WPC5, whole entry: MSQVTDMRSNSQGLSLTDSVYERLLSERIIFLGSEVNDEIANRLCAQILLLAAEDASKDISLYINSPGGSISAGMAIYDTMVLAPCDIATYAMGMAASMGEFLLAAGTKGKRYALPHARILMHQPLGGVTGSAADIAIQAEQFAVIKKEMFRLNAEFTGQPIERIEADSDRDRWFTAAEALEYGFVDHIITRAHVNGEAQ
UniProt P9WPC3, whole entry partner: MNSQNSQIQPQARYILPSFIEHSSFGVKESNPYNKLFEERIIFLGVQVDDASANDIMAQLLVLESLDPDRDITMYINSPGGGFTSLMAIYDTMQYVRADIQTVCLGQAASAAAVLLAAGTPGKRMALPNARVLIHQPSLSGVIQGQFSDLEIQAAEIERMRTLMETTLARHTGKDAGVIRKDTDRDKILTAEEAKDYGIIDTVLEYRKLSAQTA

The filed quantity is “Percent Effect” (%). The record does not define 0% and 100%; most values in the screen are far below 50% and negative numbers occur (in some assays of this library far below -100). The compounds are a random part of those screened.

LiHisRS: 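Histidine-tRNA ligase, Leishmania infantum (UniProt A4I591). Enzyme assay of histidyl-tRNA synthetase; the read-out is not stated. Concentration: 30 µM. Higher reads as stronger inhibition (inferred: compounds with an IC50 in retests scored well above the rest). The assay is labelled LdHisRS but filed under L. infantum. About 69,000 compounds were tested under these conditions; 0.6% (about 410) showed 50% or more at least once.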
Toxoplasma: 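Assay of Toxoplasma gondii numbers, read through their beta-galactosidase reporter with a colour substrate. Tested at 10 µM. Higher reads as fewer parasites (inferred from which compounds were picked for retests). Of about 67,000 compounds tested this way, about 260 (0.38%) reached 50% or more in at least one test.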
ClpP1P2: 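ClpP1P2, Mycobacterium tuberculosis (UniProt P9WPC5 and UniProt P9WPC3). Protease assay of ClpP1P2, read by the AMC dye that it sets free. Compounds at 50 µM. Higher reads as stronger inhibition, judged from the few compounds that gave an IC50. Most other retested compounds had strongly negative values. About 69,000 compounds were tested under these conditions; 0.015% (about 10) showed 50% or more at least once.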
T. brucei: 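Whole-parasite assay of Trypanosoma brucei over 72 hours; the read-out is not stated. Tested at 30 µM. Higher reads as stronger inhibition (inferred: compounds with an IC50 in retests scored well above the rest). Values scatter widely below zero; nearly all retest evidence comes from the higher of the two concentrations used. Size under these conditions: about 64,000 compounds, about 940 of them at 50% or above in at least one test.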
Leishmania in macrophages: 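Cell assay of Leishmania donovani living inside macrophages; the read-out is not stated. Concentration: 30 µM. Direction is inferred from retests: higher values go with stronger inhibition. About 69,000 compounds were tested under these conditions; 1.5% (about 1,000) showed 50% or more at least once.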

Result for O=S(=O)(NC1CCC2(CC1)OCCO2)c1cccc(Br)c1 was LiHisRS: 12.07%; Toxoplasma: 14.62%; ClpP1P2: 7.452%; T. brucei: -29.13%; Leishmania in macrophages: -21.15%. For c1cncc(CN2CCC3(COCCN(C4CCOCC4)C3)C2)c1 (configuration not stated) the result was LiHisRS: 14.55%; ClpP1P2: -4.354%. Result for COC(=O)NC1(C(=O)NCc2ccc(-c3ccn[nH]3)cc2)CCCC1 was LiHisRS: 13.56%; Toxoplasma: -3.81%; ClpP1P2: -10.18%; T. brucei: -24.07%; Leishmania in macrophages: 3.496%. COc1ccc(CNCCc2cc(F)cc3c2OCOC3)c(OC)c1 read LiHisRS: 18.52%; Toxoplasma: 29.38%; ClpP1P2: -18.42%; T. brucei: 8.291%; Leishmania in macrophages: 32.45%. CCC(=O)N1CCCN(Cc2cc(F)cc(Br)c2)CC1 read LiHisRS: 17.5%; Toxoplasma: -16.93%; ClpP1P2: -23.31%; T. brucei: -27.39%; Leishmania in macrophages: 12.37%. CCc1cccnc1NCc1cnc(N2CCOCC2)nc1 gave LiHisRS: 30.67%; Toxoplasma: -3.515%; ClpP1P2: -7.12%; T. brucei: -6.356%; Leishmania in macrophages: -8.628%.

For CCC(O)CN(CC(=O)NC(=O)NC1CC1)c1ccccc1 (configuration not stated) the result was LiHisRS: 6.612%; Toxoplasma: 0.3474%; ClpP1P2: -16.55%; T. brucei: 16.32%; Leishmania in macrophages: 19.39%. For COc1ccc(OC)c(C(O)CN2CCN(C3CCCC3)CC2)c1 (configuration not stated) the result was LiHisRS: 9.375%; Toxoplasma: -5.036%; ClpP1P2: 12.79%; T. brucei: -18.65%; Leishmania in macrophages: 17.35%. For O=C(O)C(F)(F)F.[H][C@@]12OCCN(S(=O)(=O)N(C)C)[C@@]1([H])CC[C@H]2Oc1cccnc1 the result was Toxoplasma: 5.917%; T. brucei: 1.126%; Leishmania in macrophages: 23.24%. With O=C(Cc1cccnc1)N1CCC2(CC1)CCN(C1CCOCC1)CC2 the screen gave LiHisRS: 36.99%; ClpP1P2: 16.64%. CC1CN(Cc2ccc(C#N)cc2F)CCN1Cc1nccn1C (configuration not stated) gave LiHisRS: 7.339%; Toxoplasma: 17.17%; ClpP1P2: -45.06%; Leishmania in macrophages: 22.19%. For Cc1cc(C)c2c(NCCC34CCCN3CCC4)ncnc2n1 the result was LiHisRS: 14.75%; Toxoplasma: -36.25%; ClpP1P2: -0.04059%; T. brucei: 47.63%; Leishmania in macrophages: -8.772%.

Cn1cc(C(=O)Nc2ccc3c(c2)CN(C(=O)c2ccco2)CC3)nn1 read LiHisRS: 22.33%; Toxoplasma: -2.882%; ClpP1P2: -12.71%; T. brucei: 45.17%; Leishmania in macrophages: -14.56%. For Cc1ccc(CN2CCCC3(CCCC(=O)N3C)C2)s1 (configuration not stated) the result was LiHisRS: 2%; ClpP1P2: 0.7776%. With Cc1cc(C)c(CNC(=O)NC(C)c2ccc3c(c2)CCC3)c(=O)[nH]1 (configuration not stated) the screen gave LiHisRS: 10.91%; Toxoplasma: 4.499%; ClpP1P2: -13.29%; T. brucei: -39.7%; Leishmania in macrophages: -16.47%. O=C(NC1CC1)C1CNCCN1C(=O)CCOc1ccccc1 (configuration not stated) gave LiHisRS: 15.93%; Toxoplasma: 2.082%; ClpP1P2: -8.141%; T. brucei: -88.97%; Leishmania in macrophages: 10.38%. O=C(c1cnc2[nH]c(=O)[nH]c(=O)c2c1)N1CCCC1C1CCCCC1 (configuration not stated) read LiHisRS: 16.44%; Toxoplasma: -14.91%; ClpP1P2: -10.56%; T. brucei: -34.7%; Leishmania in macrophages: 1.82%. With Clc1ccccc1C1(c2ccnc(CC3CC3)n2)CCNCC1 the screen gave LiHisRS: 29.25%; Toxoplasma: 35.91%; ClpP1P2: 13.83%; T. brucei: 25.18%; Leishmania in macrophages: 93.39%.

For Cc1cc2nc(CO[C@H]3CN(C4CCN(C)CC4)C[C@H]3F)[nH]c2cc1C the result was LiHisRS: 17.57%; Toxoplasma: -7.815%; ClpP1P2: 1.657%; T. brucei: -2.792%; Leishmania in macrophages: 10.29%.

For reference, 2 entries once more:

Result for COC(=O)NC1(C(=O)NCc2ccc(-c3ccn[nH]3)cc2)CCCC1 was LiHisRS: 13.56%; Toxoplasma: -3.81%; ClpP1P2: -10.18%; T. brucei: -24.07%; Leishmania in macrophages: 3.496%.
Result for O=C(Cc1cccnc1)N1CCC2(CC1)CCN(C1CCOCC1)CC2 was LiHisRS: 36.99%; ClpP1P2: 16.64%.

Source: ChEMBL document CHEMBL3988442, “University of Dundee, Small-Polar-MMV Screening Library” (2021).